Patent US6060608A, “Analogs of CC-1065 and the duocarmycins” (The Scripps Research Institute, priority 1999, dated 2000)
For some assays here: For at least one compound, name, drawing or mass did not settle the structure. Some entries share one result that the patent states for a list of compounds.

Key:
L1210 = experiment: In vitro cytotoxic activity, L1210
w794 duplex DNA = experiment: DNA alkylation selectivity and efficiency within w794 DNA, thermally-induced strand cleavage and PAGE; assay type: biochemical, SV40; details: 105-107: 37° C., 72 h, up to 10^-2 M; 108 and 110: 10^-3 M or lower
Text: DNA Alkylation Selectivity and Efficiency. The DNA alkylation properties of the agents were examined within w794 duplex DNA, a 144 base-pair segment of duplex DNA for which comparative results are available for related agents. The alkylation site identification and the assessment of the relative selectivity among the available sites were obtained by thermally-induced strand cleavage of the singly 5' end-labeled duplex DNA after exposure to the agents. Following treatment of the end-labeled duplex DNA with a range of agent concentrations, the unbound agent was removed by EtOH precipitation of the DNA. Redissolution of the DNA in aqueous buffer, thermolysis (100° C., 30 min) to induce strand cleavage at the sites of DNA alkylation, denaturing high resolution polyacrylamide gel electrophoresis (PAGE) adjacent to Sanger dideoxynucleotide sequencing standards, and autoradiography led to identification of the DNA cleavage and alkylation sites. The DNA alkylation reaction selectivities observed under the incubation conditions for the agents detailed herein have proven identical to the alkylation selectivities observed with shorter or extended reaction periods or when the reactions were conducted at different temperatures (37 or 4° C., 0.5-7 d). As discussed below, the rates and efficiencies but not final relative efficiencies of DNA alkylation were altered by changing the reaction temperatures.
DNA Alkylation Properties. […] The DNA alkylation reaction was examined within w794 DNA for which comparative results are available for past agents. The alkylation site identification was obtained by thermal strand cleavage of the singly 5' end-labeled duplex DNA after exposure to the agents. Following treatment of the labeled DNA with a range of agent concentrations, the unbound agent was removed by EtOH precipitation of the DNA. Redissolution of the DNA in aqueous buffer, thermolysis at 100° C. […]

[1] = normal versus abnormal addition; cited from earlier work

For `CSCCCNC(=O)c1csc(-c2csc(CCNC(=O)C(=O)N3CC(CCl)c4c3cc(O)c3ccccc43)n2)n1` (centres unmarked) [compound 105, 3-[2'-(2-(2-(1-Chloromethyl-5-hydroxy-1,2-dihydro-3H-benz[e]indol-3-yl)-1,2-dioxoethyl)aminoethyl)-2,4'-bithiazole-4-carboxamido]propyl Methyl Sulfide], the “cytotoxic potency in comparison with CBI building block or simple CBI derivatives” value (from here on “cytotoxic potency in comparison”) (L1210) was “diminished relative to those of even simple derivatives of the CC-1065/duocarmycin alkylation subunits” and the “DNA alkylation, failure to alkylate” value (w794 duplex DNA) was “failed to provide evidence of detectable, thermally sensitive alkylation of DNA”.
In the case of `COC(=O)[C@]1(C)NC2=C(C1=O)[C@@]13C[C@@H]1CN(C(=O)c1cc4cc(OC)c(OC)c(OC)c4[nH]1)C3=CC2=O` [duocarmycin A], the “solvolysis regioselectivity, prior studies” value [1] is listed as 4-1:1.
For `C[C@@H](O)[C@H](NC(=O)CCC(=O)N1CC(CCl)c2c1cc(O)c1ccccc21)C(=O)NCCc1nc(-c2nc(C(=O)NCCC[S+](C)C)cs2)cs1` (stereo partly drawn) [compound 111, 3-[2'-(2-((4-(1-Chloromethyl-5-hydroxy-1,2-dihydro-3H-benz[e]indol-3-yl)-1,4-diooxobutyl)-L-threonyl)aminoethyl)-2,4'-bithiazole-4-carboxamido]propyl Dimethyl Sulfonium Iodide], the “cytotoxic potency in comparison” value (L1210) was “diminished relative to those of even simple derivatives of the CC-1065/duocarmycin alkylation subunits”.
In the case of `CSCCCNC(=O)c1csc(-c2csc(CCNC(=O)[C@@H](NC(=O)CCC(=O)N3CC(CCl)c4c3cc(O)c3ccccc43)[C@@H](C)O)n2)n1` (stereo partly drawn) [compound 110, 3-[2'-(2-((4-(1-Chloromethyl-5-hydroxy-1,2-dihydro-3H-benz[e]indol-3-yl)-1,4-dioxobutyl)-L-threonyl)aminoethyl)-2,4'-bithiazole-4-carboxamido]propyl Methyl Sulfide], the “cytotoxic potency in comparison” value (L1210) is reported as “diminished relative to those of even simple derivatives of the CC-1065/duocarmycin alkylation subunits”.
In the case of `C[S+](C)CCCNC(=O)c1csc(-c2csc(CCNC(=O)CCC(=O)N3CC(CCl)c4c3cc(O)c3ccccc43)n2)n1.[I-]` (centres unmarked) [compound 109, 3-[2'-(2-(4-(1-Chloromethyl-5-hydroxy-1,2-dihydro-3H-benz[e]indol-3-yl)-1,4-dioxobutyl)aminoethyl)-2,4'-bithiazole-4-carboxamido]propyl Dimethyl Sulfonium Iodide], the “cytotoxic potency in comparison” value (L1210) is reported as “diminished relative to those of even simple derivatives of the CC-1065/duocarmycin alkylation subunits”.
With `C[S+]([O-])CCCNC(=O)c1csc(-c2csc(CCNC(=O)C(=O)N3CC(CCl)c4c3cc(O)c3ccccc43)n2)n1` (centres unmarked) [compound 106, 3-[2'-(2-(2-(1-Chloromethyl-5-hydroxy-1,2-dihydro-3H-benz[e]indol-3-yl)-1,2-dioxoethyl)aminoethyl)-2,4'-bithiazole-4-carboxamido]propyl Methyl Sulfoxide] the “cytotoxic potency in comparison” value (L1210) was “diminished relative to those of even simple derivatives of the CC-1065/duocarmycin alkylation subunits” and the “DNA alkylation, failure to alkylate” value (w794 duplex DNA) was “failed to provide evidence of detectable, thermally sensitive alkylation of DNA”.
For `CSCCCNC(=O)c1csc(-c2csc(CCNC(=O)CCC(=O)N3CC(CCl)c4c3cc(O)c3ccccc43)n2)n1` (centres unmarked) [compound 108, 3-[2'-(2-(2-(1-Chloromethyl-5-hydroxy-1,2-dihydro-3H-benz[e]indol-3-yl)-1,4-dioxobutyl)aminoethyl)-2,4'-bithiazole-4-carboxamido]propyl Methyl Sulfide], the “cytotoxic potency in comparison” value (L1210) was “diminished relative to those of even simple derivatives of the CC-1065/duocarmycin alkylation subunits”.
With `C[S+](C)CCCNC(=O)c1csc(-c2csc(CCNC(=O)C(=O)N3CC(CCl)c4c3cc(O)c3ccccc43)n2)n1.[I-]` (centres unmarked) [compound 107, 3-[2'-(2-(2-(1-Chloromethyl-5-hydroxy-1,2-dihydro-3H-benz[e]indol-3-yl)-1,2-dioxoethyl)aminoethyl)-2,4'-bithiazole-4-carboxamido]propyl Dimethyl Sulfonium Iodide] the “cytotoxic potency in comparison” value (L1210) was “diminished relative to those of even simple derivatives of the CC-1065/duocarmycin alkylation subunits” and the “DNA alkylation, failure to alkylate” value (w794 duplex DNA) was “failed to provide evidence of detectable, thermally sensitive alkylation of DNA”.
